Test results reported in the supplement of paper PMC10849652.
The list shows a part of the results.

The chains behind the UniProt entries cited, without tags or fusion partners. Where a name states a change or a piece, a line headed by the entry shows the natural chain unless it says otherwise.
UniProt O00584, whole entry, looked up: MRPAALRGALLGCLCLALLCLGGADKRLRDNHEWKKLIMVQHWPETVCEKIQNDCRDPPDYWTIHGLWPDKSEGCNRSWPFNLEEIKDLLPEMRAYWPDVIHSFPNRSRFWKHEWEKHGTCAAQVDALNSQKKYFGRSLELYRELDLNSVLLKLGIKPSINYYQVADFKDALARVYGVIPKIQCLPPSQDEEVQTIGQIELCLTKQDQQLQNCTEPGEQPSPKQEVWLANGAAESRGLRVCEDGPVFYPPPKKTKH
UniProt Q96DM3: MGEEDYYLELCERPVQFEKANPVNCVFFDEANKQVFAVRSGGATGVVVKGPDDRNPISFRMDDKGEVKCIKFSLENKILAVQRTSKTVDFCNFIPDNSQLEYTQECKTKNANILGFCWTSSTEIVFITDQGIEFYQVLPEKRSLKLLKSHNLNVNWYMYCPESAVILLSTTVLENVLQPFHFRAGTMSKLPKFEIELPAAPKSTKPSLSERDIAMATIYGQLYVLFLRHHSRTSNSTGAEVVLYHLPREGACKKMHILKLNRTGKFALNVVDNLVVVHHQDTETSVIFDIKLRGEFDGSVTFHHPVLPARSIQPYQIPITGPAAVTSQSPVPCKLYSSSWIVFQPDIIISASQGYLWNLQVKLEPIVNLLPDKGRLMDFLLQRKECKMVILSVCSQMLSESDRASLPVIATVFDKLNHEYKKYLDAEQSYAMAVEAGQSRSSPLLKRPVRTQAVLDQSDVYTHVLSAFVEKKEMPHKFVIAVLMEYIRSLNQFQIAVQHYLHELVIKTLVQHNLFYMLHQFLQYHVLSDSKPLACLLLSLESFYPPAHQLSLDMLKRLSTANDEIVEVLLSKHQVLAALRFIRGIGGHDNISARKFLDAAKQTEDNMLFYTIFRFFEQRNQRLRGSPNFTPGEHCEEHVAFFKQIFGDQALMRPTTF
UniProt O43665: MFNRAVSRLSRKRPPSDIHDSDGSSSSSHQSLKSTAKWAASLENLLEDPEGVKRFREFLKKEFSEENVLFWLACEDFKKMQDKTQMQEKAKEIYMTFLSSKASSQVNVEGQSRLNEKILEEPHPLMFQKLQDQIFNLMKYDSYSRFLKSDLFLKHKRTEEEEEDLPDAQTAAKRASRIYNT
UniProt Q9UKL0, whole entry, looked up: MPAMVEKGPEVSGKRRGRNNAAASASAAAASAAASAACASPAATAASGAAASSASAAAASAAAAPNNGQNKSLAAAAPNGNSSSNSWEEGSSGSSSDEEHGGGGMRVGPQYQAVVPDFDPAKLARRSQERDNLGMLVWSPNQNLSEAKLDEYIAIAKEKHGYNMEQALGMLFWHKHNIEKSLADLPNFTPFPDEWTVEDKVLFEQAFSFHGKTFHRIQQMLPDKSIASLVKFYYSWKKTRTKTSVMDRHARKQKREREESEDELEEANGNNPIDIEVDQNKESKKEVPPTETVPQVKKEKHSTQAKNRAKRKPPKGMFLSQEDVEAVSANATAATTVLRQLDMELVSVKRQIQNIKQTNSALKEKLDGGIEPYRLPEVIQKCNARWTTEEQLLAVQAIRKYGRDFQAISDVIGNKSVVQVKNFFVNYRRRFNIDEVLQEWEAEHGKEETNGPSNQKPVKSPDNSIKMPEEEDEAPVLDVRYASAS
UniProt P78332: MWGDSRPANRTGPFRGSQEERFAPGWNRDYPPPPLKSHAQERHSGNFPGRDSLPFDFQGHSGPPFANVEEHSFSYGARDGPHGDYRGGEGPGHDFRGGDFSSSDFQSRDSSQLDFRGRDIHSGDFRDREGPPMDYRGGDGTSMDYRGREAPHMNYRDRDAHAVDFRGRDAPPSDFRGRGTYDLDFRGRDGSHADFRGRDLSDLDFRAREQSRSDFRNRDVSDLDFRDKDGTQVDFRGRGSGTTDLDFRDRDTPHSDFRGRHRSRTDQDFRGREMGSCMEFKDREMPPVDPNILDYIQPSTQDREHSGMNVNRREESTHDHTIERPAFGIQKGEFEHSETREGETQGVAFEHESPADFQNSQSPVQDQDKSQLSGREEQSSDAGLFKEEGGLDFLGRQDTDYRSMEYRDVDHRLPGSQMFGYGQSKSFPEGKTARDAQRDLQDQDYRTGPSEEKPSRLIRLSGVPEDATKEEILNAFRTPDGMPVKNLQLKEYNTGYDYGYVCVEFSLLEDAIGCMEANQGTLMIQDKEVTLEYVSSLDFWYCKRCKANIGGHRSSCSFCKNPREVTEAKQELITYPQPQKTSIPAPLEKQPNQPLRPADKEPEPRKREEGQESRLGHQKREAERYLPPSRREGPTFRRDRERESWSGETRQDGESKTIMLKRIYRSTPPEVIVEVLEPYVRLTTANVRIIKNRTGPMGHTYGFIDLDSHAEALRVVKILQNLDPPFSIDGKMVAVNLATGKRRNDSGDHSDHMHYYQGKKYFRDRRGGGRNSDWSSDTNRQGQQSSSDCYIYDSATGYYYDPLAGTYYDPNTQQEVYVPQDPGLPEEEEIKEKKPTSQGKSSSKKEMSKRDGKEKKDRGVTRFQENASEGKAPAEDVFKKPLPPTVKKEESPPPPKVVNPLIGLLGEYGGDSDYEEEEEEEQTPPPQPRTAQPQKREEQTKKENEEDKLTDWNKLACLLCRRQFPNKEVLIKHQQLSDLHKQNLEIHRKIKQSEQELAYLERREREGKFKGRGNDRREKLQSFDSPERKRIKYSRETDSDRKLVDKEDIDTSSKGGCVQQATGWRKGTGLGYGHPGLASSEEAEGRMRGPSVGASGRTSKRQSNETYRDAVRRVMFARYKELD
UniProt Q04206, whole entry, looked up: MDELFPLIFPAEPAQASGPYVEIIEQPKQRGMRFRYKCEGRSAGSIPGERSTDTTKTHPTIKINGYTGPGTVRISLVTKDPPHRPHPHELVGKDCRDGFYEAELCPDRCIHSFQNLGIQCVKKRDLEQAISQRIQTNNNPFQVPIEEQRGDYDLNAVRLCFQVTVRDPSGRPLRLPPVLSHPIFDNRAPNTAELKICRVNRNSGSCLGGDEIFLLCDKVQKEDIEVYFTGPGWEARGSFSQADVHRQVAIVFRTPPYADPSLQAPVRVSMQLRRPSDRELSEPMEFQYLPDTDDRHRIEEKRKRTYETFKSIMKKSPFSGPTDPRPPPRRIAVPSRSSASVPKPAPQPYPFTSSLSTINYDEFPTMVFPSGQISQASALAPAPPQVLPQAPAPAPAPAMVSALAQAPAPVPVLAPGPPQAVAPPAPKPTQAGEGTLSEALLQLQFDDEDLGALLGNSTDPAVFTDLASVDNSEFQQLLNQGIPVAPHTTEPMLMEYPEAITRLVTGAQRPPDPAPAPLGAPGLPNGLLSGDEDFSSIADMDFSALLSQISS
UniProt Q2KHR2: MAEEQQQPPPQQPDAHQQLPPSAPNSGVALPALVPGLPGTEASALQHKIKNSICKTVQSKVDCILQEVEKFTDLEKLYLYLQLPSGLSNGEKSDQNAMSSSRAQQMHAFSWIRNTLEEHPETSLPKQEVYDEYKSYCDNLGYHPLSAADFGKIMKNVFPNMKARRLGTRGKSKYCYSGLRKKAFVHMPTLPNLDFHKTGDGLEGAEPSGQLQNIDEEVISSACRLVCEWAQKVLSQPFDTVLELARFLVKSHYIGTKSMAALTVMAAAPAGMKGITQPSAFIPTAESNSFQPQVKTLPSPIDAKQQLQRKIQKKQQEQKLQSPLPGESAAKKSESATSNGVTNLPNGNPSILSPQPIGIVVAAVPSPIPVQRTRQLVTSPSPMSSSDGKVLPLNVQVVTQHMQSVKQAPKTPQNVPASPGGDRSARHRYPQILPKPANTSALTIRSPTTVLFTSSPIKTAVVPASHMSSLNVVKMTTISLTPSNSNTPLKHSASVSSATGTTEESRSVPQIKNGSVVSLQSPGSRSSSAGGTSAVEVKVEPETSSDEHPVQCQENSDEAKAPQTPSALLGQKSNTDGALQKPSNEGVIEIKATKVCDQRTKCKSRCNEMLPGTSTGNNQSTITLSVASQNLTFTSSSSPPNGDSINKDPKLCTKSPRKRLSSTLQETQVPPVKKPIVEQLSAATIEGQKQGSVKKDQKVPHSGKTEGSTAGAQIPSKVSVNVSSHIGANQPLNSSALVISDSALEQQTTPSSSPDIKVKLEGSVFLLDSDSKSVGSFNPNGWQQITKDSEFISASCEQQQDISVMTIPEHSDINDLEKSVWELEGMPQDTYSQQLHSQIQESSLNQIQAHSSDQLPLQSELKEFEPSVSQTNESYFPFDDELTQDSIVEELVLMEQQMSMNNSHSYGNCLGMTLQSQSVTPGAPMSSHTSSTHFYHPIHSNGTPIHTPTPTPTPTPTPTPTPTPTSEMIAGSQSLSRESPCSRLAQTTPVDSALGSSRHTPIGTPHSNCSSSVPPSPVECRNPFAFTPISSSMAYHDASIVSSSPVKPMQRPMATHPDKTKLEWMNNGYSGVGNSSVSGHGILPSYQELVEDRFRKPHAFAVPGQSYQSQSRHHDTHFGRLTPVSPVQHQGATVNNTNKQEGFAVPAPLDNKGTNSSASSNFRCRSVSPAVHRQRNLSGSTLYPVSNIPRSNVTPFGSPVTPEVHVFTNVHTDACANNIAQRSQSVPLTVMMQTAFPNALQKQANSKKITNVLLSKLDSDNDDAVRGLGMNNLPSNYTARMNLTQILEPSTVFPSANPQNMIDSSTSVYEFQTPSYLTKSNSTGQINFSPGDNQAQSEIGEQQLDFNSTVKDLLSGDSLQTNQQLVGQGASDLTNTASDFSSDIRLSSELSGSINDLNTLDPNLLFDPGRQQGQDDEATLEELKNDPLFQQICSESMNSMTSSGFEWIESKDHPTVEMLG
UniProt Q8NBN7: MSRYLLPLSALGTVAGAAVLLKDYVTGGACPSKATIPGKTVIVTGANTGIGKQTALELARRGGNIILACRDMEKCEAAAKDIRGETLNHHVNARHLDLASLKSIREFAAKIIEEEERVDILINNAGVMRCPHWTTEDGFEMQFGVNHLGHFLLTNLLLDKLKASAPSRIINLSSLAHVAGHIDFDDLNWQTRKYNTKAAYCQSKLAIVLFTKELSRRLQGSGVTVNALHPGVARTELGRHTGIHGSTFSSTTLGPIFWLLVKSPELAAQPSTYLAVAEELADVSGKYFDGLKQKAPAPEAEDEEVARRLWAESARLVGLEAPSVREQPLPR
UniProt P61586, whole entry, looked up: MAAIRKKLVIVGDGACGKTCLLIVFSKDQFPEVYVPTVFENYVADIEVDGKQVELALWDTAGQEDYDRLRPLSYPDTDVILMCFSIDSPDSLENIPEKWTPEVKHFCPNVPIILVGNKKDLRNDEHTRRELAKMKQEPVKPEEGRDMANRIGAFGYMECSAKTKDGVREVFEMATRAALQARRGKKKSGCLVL
UniProt O75792: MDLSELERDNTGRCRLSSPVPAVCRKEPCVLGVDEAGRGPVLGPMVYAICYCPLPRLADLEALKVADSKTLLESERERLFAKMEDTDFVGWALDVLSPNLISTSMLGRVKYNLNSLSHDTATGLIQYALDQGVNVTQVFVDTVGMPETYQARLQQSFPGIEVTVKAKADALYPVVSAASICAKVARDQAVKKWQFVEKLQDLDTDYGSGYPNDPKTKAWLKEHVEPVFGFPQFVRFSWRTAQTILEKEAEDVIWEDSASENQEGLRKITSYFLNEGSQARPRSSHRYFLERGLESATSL
UniProt O14730: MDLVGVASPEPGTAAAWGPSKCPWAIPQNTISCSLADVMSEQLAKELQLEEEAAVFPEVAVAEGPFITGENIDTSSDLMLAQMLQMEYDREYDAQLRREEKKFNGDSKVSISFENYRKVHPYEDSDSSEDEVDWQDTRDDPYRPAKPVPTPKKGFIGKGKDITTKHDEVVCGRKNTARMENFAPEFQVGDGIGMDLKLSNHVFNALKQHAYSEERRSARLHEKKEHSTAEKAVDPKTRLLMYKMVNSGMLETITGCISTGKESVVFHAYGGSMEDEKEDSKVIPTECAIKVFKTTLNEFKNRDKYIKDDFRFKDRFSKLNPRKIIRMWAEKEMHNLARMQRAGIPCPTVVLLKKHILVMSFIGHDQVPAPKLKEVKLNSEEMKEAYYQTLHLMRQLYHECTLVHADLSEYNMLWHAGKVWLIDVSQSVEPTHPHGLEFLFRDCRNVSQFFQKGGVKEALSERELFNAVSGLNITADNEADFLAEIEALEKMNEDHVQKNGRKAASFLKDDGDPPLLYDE
UniProt Q96E14: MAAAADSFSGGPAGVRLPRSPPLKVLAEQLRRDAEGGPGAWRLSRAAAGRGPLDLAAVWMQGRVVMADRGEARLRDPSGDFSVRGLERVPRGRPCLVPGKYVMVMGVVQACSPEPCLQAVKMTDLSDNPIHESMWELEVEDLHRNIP

What was measured:
Assay in all cases: log2 fold change, soluble protein after heating vs DMSO (PISA); higher = thermal stabilisation; K562 cells, 10 uM, 30 min; active = over 0.2 and 3.5 SD of the protein, either way, in both replicates (recomputed)
saracatinib = compound: CN1CCN(CCOc2cc(OC3CCOCC3)c3c(Nc4c(Cl)ccc5c4OCO5)ncnc3c2)CC1 [saracatinib]
In short: (§1)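 K562 cells at 2×10^6 cells/mL were treated for 30 min with 10 μM compound, and aliquots were heated for 3 min over 48°C-58°C before pooling. Extraction used PBS with 0.5% NP-40 at 4°C, and soluble protein was the supernatant after 21,000xg for 90 min, measured by TMTpro 16plex LC-MS/MS with channel sums equalised. Thermal stability values, relative to control samples and from duplicates, are log2 fold changes.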

sotrastaurin = compound: CN1CCN(c2nc(C3=C(c4c[nH]c5ccccc45)C(=O)NC3=O)c3ccccc3n2)CC1 [sotrastaurin]
In short: as §1

Tubastatin A = compound: CN1CCc2c(c3ccccc3n2Cc2ccc(C(=O)NO)cc2)C1 [Tubastatin A]
In short: as §1

[1] = compound: CNC(=O)C1=CC=CC=C1NC2=NC(=NC=C2Cl)NC3=C(C=C(C=C3)N4CCOCC4)OC
In short: as §1

defactinib = compound: CNC(=O)c1ccc(Nc2ncc(C(F)(F)F)c(NCc3nccnc3N(C)S(C)(=O)=O)n2)cc1 [defactinib]
In short: as §1

rucaparib = compound: CNCc1ccc(-c2[nH]c3cc(F)cc4c3c2CCNC4=O)cc1 [rucaparib]
In short: as §1

[2] = compound: CNc1nc(-c2ccc3c(N)n[nH]c3c2)cc(N2C[C@@H](C(=O)NC3CCCCC3)CC[C@H]2C)n1
In short: as §1

encorafenib = compound: COC(=O)N[C@@H](C)CNc1nccc(-c2cn(C(C)C)nc2-c2cc(Cl)cc(NS(C)(=O)=O)c2F)n1 [encorafenib]
In short: as §1

[3] = compound: COC(=O)[C@H](CCSC)NC(=O)C1=C(C=C(C=C1)NC[C@H](CS)N)C2=CC=CC=C2
In short: as §1

[4] = compound: COC1=CC=C(C=C1)CN2C=CC3=C2C=C(C=C3)C(=O)NO
In short: as §1

filanesib = compound: CON(C)C(=O)N1N=C(c2cc(F)ccc2F)S[C@@]1(CCCN)c1ccccc1 [filanesib]
In short: as §1

zotarolimus = compound: CO[C@H]1C[C@@H]2CC[C@@H](C)[C@@](O)(O2)C(=O)C(=O)N2CCCC[C@H]2C(=O)O[C@H]([C@H](C)C[C@@H]2CC[C@H](n3cnnn3)[C@H](OC)C2)CC(=O)[C@H](C)/C=C(\C)[C@@H](O)[C@@H](OC)C(=O)[C@H](C)C[C@H](C)/C=C/C=C/C=C/1C [zotarolimus]
In short: as §1

idasanutlin = compound: COc1cc(C(=O)O)ccc1NC(=O)[C@@H]1N[C@@H](CC(C)(C)C)[C@](C#N)(c2ccc(Cl)cc2F)[C@H]1c1cccc(Cl)c1F [idasanutlin]
In short: as §1

alisertib = compound: COc1cc(Nc2ncc3c(n2)-c2ccc(Cl)cc2C(c2c(F)cccc2OC)=NC3)ccc1C(=O)O [alisertib]
In short: as §1

[5] = compound: COc1cc2nc(-c3cc(F)ccc3O)nc(N[C@@H]3CNC[C@H]3C(C)(C)O)c2cc1OC
In short: as §1

gefitinib = compound: COc1cc2ncnc(Nc3ccc(F)c(Cl)c3)c2cc1OCCCN1CCOCC1 [gefitinib]
In short: as §1

[6] = compound: COc1cccc2cc(-c3nc([C@H]4CC[C@H](C(=O)O)CC4)n4ncnc(N)c34)[nH]c12
In short: as §1

lapatinib = compound: CS(=O)(=O)CCNCc1ccc(-c2ccc3ncnc(Nc4ccc(OCc5cccc(F)c5)c(Cl)c4)c3c2)o1 [lapatinib]
In short: as §1

pictilisib = compound: CS(=O)(=O)N1CCN(Cc2cc3nc(-c4cccc5[nH]ncc45)nc(N4CCOCC4)c3s2)CC1 [pictilisib]
In short: as §1

alvocidib = compound: CN1CC[C@H](c2c(O)cc(O)c3c(=O)cc(-c4ccccc4Cl)oc23)[C@H](O)C1 [alvocidib]
In short: as §1

Target	log2 fold change (saracatinib)	log2 fold change (sotrastaurin)	log2 fold change (Tubastatin A)	log2 fold change [1]	log2 fold change (defactinib)	log2 fold change (rucaparib)	log2 fold change [2]	log2 fold change (encorafenib)	log2 fold change [3]	log2 fold change [4]	log2 fold change (filanesib)	log2 fold change (zotarolimus)	log2 fold change (idasanutlin)	log2 fold change (alisertib)	log2 fold change [5]	log2 fold change (gefitinib)	log2 fold change [6]	log2 fold change (lapatinib)	log2 fold change (pictilisib)	log2 fold change (alvocidib)
RNASET2 (UniProt O00584)	inactive: 0.009	inactive: 0.01	inactive: 0.003	inactive: -0.031	inactive: -0.004	inactive: -0.163	inactive: -0.067	inactive: 0.015	inactive: -0.002	inactive: 0.012	inactive: -0.155	inactive: -0.013	inactive: -0.021	inactive: -0.046	inactive: -0.097	inactive: -0.081	inactive: 0.035	inactive: -0.028	inactive: 0.024	–
RIC1 (UniProt Q4ADV7)	inactive: -0.162	inactive: -0.107	–	inactive: -0.083	inactive: 0.032	inactive: 0.05	inactive: -0.264	inactive: -0.11	inactive: 0.168	inactive: 0.172	inactive: -0.147	–	inactive: 0.009	inactive: 0.06	inactive: -0.019	inactive: -0.061	inactive: 0.243	inactive: -0.015	inactive: 0.104	–
RMC1 (UniProt Q96DM3)	inactive: -0.002	inactive: -0.01	inactive: 0.007	inactive: 0.014	inactive: -0.041	inactive: 0.029	inactive: 0.014	inactive: -0.013	inactive: -0.018	inactive: -0.002	inactive: -0.058	inactive: -0.015	inactive: -0.047	inactive: -0.059	inactive: -0.006	inactive: 0.045	inactive: 0.044	inactive: -0.029	inactive: -0.105	–
RGS10 (UniProt O43665)	inactive: 0.033	inactive: -0.023	inactive: 0.049	inactive: 0.014	inactive: -0.11	inactive: 0.038	inactive: 0	inactive: -0.001	inactive: -0.002	inactive: -0.023	inactive: -0.081	inactive: 0.115	inactive: 0.086	inactive: -0.053	inactive: 0.003	inactive: 0.056	inactive: -0.014	inactive: 0.029	inactive: -0.028	–
RCOR1 (UniProt Q9UKL0)	inactive: -0.011	inactive: -0.047	inactive: 0.028	inactive: -0.017	inactive: -0.119	inactive: -0.005	inactive: 0.073	inactive: 0	inactive: -0.002	inactive: -0.039	inactive: 0.002	inactive: -0.044	inactive: 0	inactive: 0.013	inactive: 0.003	inactive: -0.002	inactive: 0.015	inactive: 0.019	inactive: 0.005	–
RNF2 (UniProt Q99496)	inactive: 0.025	inactive: -0.105	inactive: 0.111	inactive: 0.091	inactive: -0.029	inactive: -0.054	inactive: -0.059	inactive: 0.003	inactive: 0.1	inactive: -0.104	inactive: 0.023	inactive: 0	inactive: -0.01	inactive: -0.105	inactive: -0.04	inactive: 0.106	inactive: 0.039	inactive: 0.011	inactive: 0.099	–
RBM6 (UniProt P78332)	inactive: -0.032	inactive: -0.077	inactive: -0.077	–	–	–	inactive: 0.247	–	–	inactive: 0.044	inactive: -0.067	inactive: 0.064	inactive: 0.101	inactive: -0.431	inactive: -0.02	inactive: -0.007	inactive: 0.005	inactive: 0.121	inactive: -0.044	–
RELA (UniProt Q04206)	inactive: 0.027	inactive: -0.036	inactive: -0.017	inactive: 0.032	inactive: -0.077	inactive: -0.026	inactive: -0.029	inactive: 0.044	inactive: -0.011	inactive: 0.025	inactive: -0.002	inactive: 0.024	inactive: -0.039	inactive: -0.028	inactive: -0.031	inactive: 0.023	inactive: 0.005	inactive: 0.012	inactive: -0.007	–
RFX7 (UniProt Q2KHR2)	inactive: -0.005	inactive: -0.112	–	–	–	–	inactive: -0.048	–	–	–	inactive: -0.001	–	–	–	–	–	–	–	–	–
RDH10 (UniProt Q8IZV5)	inactive: 0.005	inactive: 0.016	inactive: 0.04	inactive: 0.068	inactive: -0.002	inactive: -0.034	inactive: 0.072	inactive: -0.011	inactive: -0.063	inactive: -0.007	inactive: -0.023	inactive: -0.03	inactive: -0.14	inactive: 0.013	inactive: 0.031	inactive: 0.083	inactive: 0.036	inactive: 0.037	inactive: 0.009	–
RDH13 (UniProt Q8NBN7)	inactive: -0.084	inactive: 0.027	inactive: -0.063	inactive: -0.062	inactive: -0.043	inactive: 0.029	inactive: 0.016	inactive: 0.014	inactive: -0.016	inactive: 0.056	inactive: -0.135	inactive: 0.072	inactive: -0.019	inactive: -0.005	inactive: -0.064	inactive: 0.018	inactive: 0.084	inactive: 0	inactive: 0.042	–
RBSN (UniProt Q9H1K0)	inactive: -0.011	inactive: -0.183	inactive: 0.182	inactive: 0.001	inactive: -0.041	inactive: -0.012	inactive: 0.129	inactive: 0.041	inactive: 0.054	inactive: -0.041	inactive: -0.551	–	inactive: -0.069	–	inactive: -0.167	inactive: -0.013	–	inactive: -0.063	inactive: -0.022	–
RHOA (UniProt P61586)	inactive: 0.079	inactive: -0.025	inactive: -0.025	inactive: -0.029	inactive: 0	inactive: 0.074	inactive: 0.012	inactive: -0.126	inactive: 0.08	active: 0.284	inactive: -0.012	inactive: -0.054	inactive: 0.1	inactive: -0.085	inactive: -0.118	inactive: 0.036	inactive: -0.012	inactive: 0.036	inactive: -0.178	–
RHEB (UniProt Q15382)	inactive: 0.047	inactive: 0.04	inactive: -0.054	inactive: -0.032	inactive: 0.002	inactive: -0.084	inactive: -0.011	inactive: 0.025	inactive: 0	inactive: -0.007	inactive: -0.08	inactive: 0.016	inactive: -0.049	inactive: -0.03	inactive: 0.032	inactive: 0.015	inactive: 0.057	inactive: 0.005	inactive: 0.029	–
RNASEH2A (UniProt O75792)	inactive: -0.071	inactive: 0.029	inactive: 0.033	inactive: 0.029	inactive: 0.117	inactive: 0.018	inactive: 0.033	inactive: -0.003	inactive: 0.096	inactive: 0.029	inactive: -0.005	inactive: 0.034	inactive: -0.007	inactive: -0.016	inactive: 0.049	inactive: -0.013	inactive: 0.031	inactive: -0.029	inactive: 0.234	–
RIOK3 (UniProt O14730)	inactive: 0.029	inactive: -0.006	inactive: 0.012	inactive: -0.029	inactive: -0.01	inactive: -0.132	inactive: -0.039	inactive: -0.02	inactive: -0.002	inactive: -0.039	inactive: -0.049	inactive: -0.019	inactive: 0.052	inactive: -0.029	inactive: -0.009	inactive: 0.007	inactive: 0.01	inactive: 0.003	inactive: 0.095	–
RBP4 (UniProt P02753)	inactive: 0.008	–	inactive: -0.089	inactive: -0.138	inactive: -0.057	inactive: 0.082	inactive: 0.236	inactive: -0.136	inactive: 0.173	inactive: 0.042	–	inactive: -0.3	inactive: 0.224	inactive: -0.035	–	–	inactive: 0.465	–	inactive: -0.433	inactive: 0.137
RMI2 (UniProt Q96E14)	inactive: -0.119	–	inactive: 0.032	–	inactive: -0.019	–	inactive: 0.014	–	inactive: -0.139	–	–	inactive: -0.028	inactive: -0.092	inactive: 0.088	inactive: 0.269	–	inactive: -0.088	inactive: 0.269	–	inactive: -0.275
RIPK1 (UniProt Q13546)	inactive: -0.197	inactive: -0.208	inactive: 0.017	inactive: 0.191	inactive: 0.028	inactive: 0.161	inactive: 0.212	inactive: 0.073	inactive: -0.097	inactive: 0	inactive: 0.049	inactive: 0.098	inactive: 0.022	inactive: -0.052	inactive: 0.032	inactive: 0.043	inactive: -0.214	inactive: 0.055	inactive: 0.027	–

Complete entries as entered above. Values in the order: log2 fold change (saracatinib)	log2 fold change (sotrastaurin)	log2 fold change (Tubastatin A)	log2 fold change [1]	log2 fold change (defactinib)	log2 fold change (rucaparib)	log2 fold change [2]	log2 fold change (encorafenib)	log2 fold change [3]	log2 fold change [4]	log2 fold change (filanesib)	log2 fold change (zotarolimus)	log2 fold change (idasanutlin)	log2 fold change (alisertib)	log2 fold change [5]	log2 fold change (gefitinib)	log2 fold change [6]	log2 fold change (lapatinib)	log2 fold change (pictilisib)	log2 fold change (alvocidib)
RNASEH2A (UniProt O75792) is listed with inactive: -0.071	inactive: 0.029	inactive: 0.033	inactive: 0.029	inactive: 0.117	inactive: 0.018	inactive: 0.033	inactive: -0.003	inactive: 0.096	inactive: 0.029	inactive: -0.005	inactive: 0.034	inactive: -0.007	inactive: -0.016	inactive: 0.049	inactive: -0.013	inactive: 0.031	inactive: -0.029	inactive: 0.234	–
RNASET2 (UniProt O00584) is listed with inactive: 0.009	inactive: 0.01	inactive: 0.003	inactive: -0.031	inactive: -0.004	inactive: -0.163	inactive: -0.067	inactive: 0.015	inactive: -0.002	inactive: 0.012	inactive: -0.155	inactive: -0.013	inactive: -0.021	inactive: -0.046	inactive: -0.097	inactive: -0.081	inactive: 0.035	inactive: -0.028	inactive: 0.024	–
